# Measurements reported in article PMC7819943, “Rice protein-binding microarrays: a tool to detect cis-acting elements near promoter regions in rice”.
# Amino acid sequences for entries named in this document (tags omitted).
# UniProt Q0JBA9, entry or part of it: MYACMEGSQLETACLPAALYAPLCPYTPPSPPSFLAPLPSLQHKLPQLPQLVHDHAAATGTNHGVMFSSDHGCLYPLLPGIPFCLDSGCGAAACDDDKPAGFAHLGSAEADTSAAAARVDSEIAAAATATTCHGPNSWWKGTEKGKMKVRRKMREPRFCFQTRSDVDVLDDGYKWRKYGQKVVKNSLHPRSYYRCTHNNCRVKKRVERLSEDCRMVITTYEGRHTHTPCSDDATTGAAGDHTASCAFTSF
# This is one part of the list.
# Target: OsWRKY34 (Oryza sativa, UniProt Q0JBA9 1-250)
# Test: protein-binding microarray (RPBM); PBS, 2% BSA, 51.3 ng/ul salmon testes DNA, 50 uM zinc acetate, 200 nM TF, 25 C, 1 h; high values mean tight binding
# Conditions: protein: recombinant; tags: N-terminal polyhistidine and DsRed monomer fusion (pET32a); label: CyDye5-dUTP incorporated in the synthesized complementary strand; 3' TTTTT single-stranded linker to array surface; dsDNA, one strand shown
# Summary of the method: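 Transcription factors, each fused N-terminally to a polyhistidine tag and DsRed, were expressed in E. coli BL21-CodonPlus and purified on Ni–NTA. A custom Agilent array was made double-stranded by primer extension with Cy5-dUTP and blocked with 2% BSA. It was incubated with 200 nM protein in PBS, 2% BSA, salmon testes DNA and 50 µM zinc acetate at 25 °C for 1 h, then washed. The binding signal is per-feature fluorescence intensity (arbitrary units) read on an Axon 4000B scanner.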
row,Sequence,binding signal
1,CATGGACAATTTTTACCGAATATATTCTCGGTTGCTTACTCGGAGTCACCTAGTGCAG,8220 fluorescence intensity (a.u.)
2,GTCTGCACATCTGAAAGCTTTCTCCTTCACAGACTGAAGACGGAGTCACCTAGTGCAG,9110 fluorescence intensity (a.u.)
3,ACACATGCTTATATGCTCTCTCCGTTCCATAATAAGTTTACGGAGTCACCTAGTGCAG,10400 fluorescence intensity (a.u.)
4,ATAGCACTTTACTCGTGACTTATGTTTTCAATTTTTTTTACGGAGTCACCTAGTGCAG,11300 fluorescence intensity (a.u.)
5,AGGCTTTAACGTGATTGGGCAGGGGAAGATAATTAATAGACGGAGTCACCTAGTGCAG,9190 fluorescence intensity (a.u.)
6,ACGGGTTGAGGGAGTCTATCTTGGCGTGATGGGAATTTTTCGGAGTCACCTAGTGCAG,11100 fluorescence intensity (a.u.)
7,GCTGGGAGTTAGAACGGTGATCCATCTAGATGTAATGGTCCGGAGTCACCTAGTGCAG,8740 fluorescence intensity (a.u.)
8,GGTCTCTCCAGTACCCTACTCTGCCCTTGTTCTTTTCTTCCGGAGTCACCTAGTGCAG,11000 fluorescence intensity (a.u.)
9,TTGAGAGGTCCACACCACACGGCGGCCGCACCCGATCACACGGAGTCACCTAGTGCAG,8920 fluorescence intensity (a.u.)
10,ATAGTTGTTCTAGCTAGTAGTGGCATCTCGTATATGCCAACGGAGTCACCTAGTGCAG,10500 fluorescence intensity (a.u.)
11,AGTGTTATTTTTATTCTCTCCATCCTGCCGTCTGCACTATCGGAGTCACCTAGTGCAG,10800 fluorescence intensity (a.u.)
12,GTATTTTCAGTTCCCTCCGTTTTAGGTTACAAGTTGTCTTCGGAGTCACCTAGTGCAG,9020 fluorescence intensity (a.u.)
13,CGTTCCAGCCCAACCCGGCCCCGCCCTGCCCCGTTGCCATCGGAGTCACCTAGTGCAG,9370 fluorescence intensity (a.u.)
14,CTGTACCCGTTTGGCCGTTTCCCAAAAGATGCCGCTATTGCGGAGTCACCTAGTGCAG,11700 fluorescence intensity (a.u.)
15,TGTATCCTTCCACCTTTTTATAATATTTAACATACATATTCGGAGTCACCTAGTGCAG,8240 fluorescence intensity (a.u.)
16,TCAGTCACCTGCCCTGCATTCCTTGGCAAGATACATCGTCCGGAGTCACCTAGTGCAG,9300 fluorescence intensity (a.u.)
17,ATTCCTTGCATCCTCCTCGTTCCGTTTTTGTGGTTTTCGACGGAGTCACCTAGTGCAG,10400 fluorescence intensity (a.u.)
18,GACCAGTCAACACTCGCCAGCGCAAATCCTTTTCGAATCCCGGAGTCACCTAGTGCAG,8040 fluorescence intensity (a.u.)
19,GTTTTGCGCCGCCCGCACTGCCAGCCGCTGCCACGCTGCTCGGAGTCACCTAGTGCAG,8590 fluorescence intensity (a.u.)
20,AGCTTTCACCTCATTAAGACCGGTATCTGTTGAGACTTGACGGAGTCACCTAGTGCAG,8860 fluorescence intensity (a.u.)
21,GGGCCTGGGCTGGCCCGTTATTTTTTCTGTTTGTGTCTTTCGGAGTCACCTAGTGCAG,8880 fluorescence intensity (a.u.)

row,Sequence,binding signal
1,TTTGTCGTGTTGACCACAGCCTAATCCTCCTCGGATGTCTCGGAGTCACCTAGTGCAG,10000 fluorescence intensity (a.u.)
2,CAACCGGCAACCACCAACACCTTCACCTTCCGAATCCTGACGGAGTCACCTAGTGCAG,8520 fluorescence intensity (a.u.)
3,CTAACCCTATTTCTTCTCCTCACCTCCCCTTCCCATCCCACGGAGTCACCTAGTGCAG,8200 fluorescence intensity (a.u.)
4,CTCGCCGCTCGTCACTCGGCTCTCGCATCAGGGGCATACGCGGAGTCACCTAGTGCAG,9040 fluorescence intensity (a.u.)
5,TCTCTGTTCGCTTTCGTACCTGCATTTCACTTTCTTTCTACGGAGTCACCTAGTGCAG,13900 fluorescence intensity (a.u.)
6,TCCATTTCACACTAAGTCGTTTCGATTTTTTTTATAGTCACGGAGTCACCTAGTGCAG,8740 fluorescence intensity (a.u.)
7,ATTTTTCTATTTCAGGGATGGGGATGTGCTTATCGTTCTCCGGAGTCACCTAGTGCAG,8130 fluorescence intensity (a.u.)
8,GAGAGGCTGACGGGTAGGGTCCATACTTTTTTTCATACTGCGGAGTCACCTAGTGCAG,8140 fluorescence intensity (a.u.)
9,GATTCTATGGTTGATGGTTAATTTCATAGTTGATGGACTGCGGAGTCACCTAGTGCAG,8750 fluorescence intensity (a.u.)
10,CTCCTGCGCGGCCACGTCTCACCTACCACCACCTTACCCTCGGAGTCACCTAGTGCAG,14800 fluorescence intensity (a.u.)
11,ATTATATTTTACAATTCTCTATTTTACACTTATATTTTCACGGAGTCACCTAGTGCAG,9230 fluorescence intensity (a.u.)
12,CTAGGTGCCTACCCTTTTGACCTCCACTTGCTACAAGTTACGGAGTCACCTAGTGCAG,10600 fluorescence intensity (a.u.)
13,TAATCTCTTCTTACACACTGCTTATATTTTGATGTGTTTCCGGAGTCACCTAGTGCAG,11000 fluorescence intensity (a.u.)
14,TTCATCTTCTCCTCCGTTTCTTCTTCGCTTGTCTCCAAGCCGGAGTCACCTAGTGCAG,8390 fluorescence intensity (a.u.)
15,GCATTTATATGGGGTGGTGATTAATGGTGTTGTTTAAGGGCGGAGTCACCTAGTGCAG,8990 fluorescence intensity (a.u.)
16,TCAACCATAATCACTAGTGTCACAAACACCTTGAAATTCACGGAGTCACCTAGTGCAG,8120 fluorescence intensity (a.u.)
17,TCCACCCCATCCATCCGTCCGTCCGTCGCACCAGGCCCACCGGAGTCACCTAGTGCAG,9660 fluorescence intensity (a.u.)
18,TCTCTCTCTCTCTCTCTCTCTCTCTCTATATATATATATACGGAGTCACCTAGTGCAG,9620 fluorescence intensity (a.u.)
19,GCAGCAAATCGATTTTATCCGCCGCACCTTTTGCCGCTCTCGGAGTCACCTAGTGCAG,8100 fluorescence intensity (a.u.)
20,TCATCTTCACCTCCATTTGGCTTTATTTCTTACCTTTTAACGGAGTCACCTAGTGCAG,10700 fluorescence intensity (a.u.)
21,GTAGCCTTTCAGCTCACCGAGTTCTCCTGTTCCTTCCGGCCGGAGTCACCTAGTGCAG,8740 fluorescence intensity (a.u.)

# Taken from above.
# Entry of ATTCCTTGCATCCTCCTCGTTCCGTTTTTGTGGTTTTCGACGGAGTCACCTAGTGCAG under binding signal: 10400 fluorescence intensity (a.u.)
# Entry of CTCGCCGCTCGTCACTCGGCTCTCGCATCAGGGGCATACGCGGAGTCACCTAGTGCAG under binding signal: 9040 fluorescence intensity (a.u.)
